# Data: the supplement of paper PMC6411743
# ± gives the standard deviation of the averaged measurements. Only a part is listed here, and it is no random draw.
# Compound: Nc1ncnc2c1ncn2[C@@H]1O[C@H](COP(=O)(O)OP(=O)(O)NP(=O)(O)O)[C@@H](O)[C@H]1O [adenylyl imidodiphosphate]
# Test: NP40-soluble protein abundance relative to vehicle (solubility fold change) (ratio); higher = more soluble protein in presence of AMP-PNP
# In short: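 Jurkat crude lysate prepared with a Dounce homogeniser was treated at eight concentrations spanning 0.1 to 10 mM, 10 min at room temperature then 3 min at 37 °C. Solubilisation with 0.8% NP40 and benzonase and ultracentrifugation preceded TMT labelling of the supernatant for LC-MS/MS. Fold change against the detergent-processed vehicle was determined per replicate from vsn-normalised intensities, across three independent experiments.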
Target,NP40-soluble protein abundance (concentration: 1mM),NP40-soluble protein abundance (concentration: 2mM),NP40-soluble protein abundance (concentration: 4mM),NP40-soluble protein abundance (concentration: 6mM),NP40-soluble protein abundance (concentration: 8mM),NP40-soluble protein abundance (concentration: 10mM)
A0A0G2JPT5|O75943 and related entries (UniProt O75943),0.9727 ± 0.0014,1.0041 ± 0.00096,1.01 ± 0.013,0.97 ± 0.043,0.9982 ± 0.004,0.994 ± 0.039
A0A0C4DG44|O43464 and related entries (UniProt O43464),0.99 ± 0.026,0.933 ± 0.045,0.974 ± 0.031,0.957 ± 0.026,0.962 ± 0.036,0.962 ± 0.046
A0A0C4DGB9|Q9H2U2 (UniProt Q9H2U2),1 ± 0.016,1 ± 0.024,0.9893 ± 0.0073,1.02 ± 0.023,1.01 ± 0.029,1.01 ± 0.036
A0A0A0MT83|P26440 (UniProt P26440),1.007 ± 0.01,0.947 ± 0.058,1.01 ± 0.033,0.99 ± 0.038,1.01 ± 0.015,0.993 ± 0.02
A0A0A0MS70|A0A0A0MST0|H0Y4G9 and related entries (UniProt Q99836),0.99 ± 0.013,0.965 ± 0.025,0.999 ± 0.035,0.987 ± 0.053,0.984 ± 0.04,0.994 ± 0.03
A0A0C4DGS1|P39656 (UniProt P39656),0.945 ± 0.034,0.833 ± 0.11,0.954 ± 0.059,0.927 ± 0.024,0.959 ± 0.025,0.885 ± 0.061
A0A140T9B7|A0A140T9Z6|P01889 and related entries (UniProt P18463+P01889+P30486+P10321+P16188+Q30167+P30504+P30460+P30493+Q29865+Q6DU44+E9PIB1+Q8MH48+P30508+Q5SRN5+Q9TNN7+Q29940+O19617+Q29963+Q31610),0.989 ± 0.025,1.01 ± 0.032,0.986 ± 0.011,1 ± 0.019,0.985 ± 0.011,1 ± 0.016
A0A0A0MRT6|B6VEX4 and related entries (UniProt Q8IZP0),1.05 ± 0.032,1.09 ± 0.054,1.06 ± 0.075,1.01 ± 0.036,0.998 ± 0.017,1 ± 0.031
A0A0A0MSK4 (UniProt Q86YR5),1.01 ± 0.041,1.04 ± 0.059,1.03 ± 0.047,0.981 ± 0.0099,1 ± 0.035,1 ± 0.037
A0A0A0MRE5|Q9ULH1 and related entries (UniProt Q9ULH1),0.98 ± 0.022,1.005 ± 0.0039,0.999 ± 0.024,0.991 ± 0.022,0.969 ± 0.021,0.984 ± 0.039
A0A0G2JJD3|O95870 and related entries (UniProt O95870),0.9652 ± 0.0078,0.968 ± 0.034,0.974 ± 0.018,0.9683 ± 0.0022,0.98 ± 0.029,0.932 ± 0.012
UniProt A1L0T0 and related entries,0.969 ± 0.026,0.9902 ± 0.0095,0.9938 ± 0.0089,0.995 ± 0.023,1 ± 0.035,1.03 ± 0.025
A0A096LP10|Q9NP73-2|Q9NP73 (UniProt Q9NP73),1.01 ± 0.02,1.023 ± 0.0072,0.997 ± 0.042,0.963 ± 0.029,0.985 ± 0.034,0.939 ± 0.054
A0JP02 and related entries (UniProt Q9HAU0),0.998 ± 0.042,1.01 ± 0.033,1.03 ± 0.039,1.02 ± 0.059,1.03 ± 0.042,1.03 ± 0.011
A0A087WXD1|Q96T83 (UniProt Q96T83),0.971 ± 0.05,0.973 ± 0.015,0.958 ± 0.033,0.948 ± 0.038,0.935 ± 0.027,0.9324 ± 0.0081
A0A0B4J1W0|F5GY88 and related entries (UniProt O75448),0.996 ± 0.016,1.01 ± 0.028,1.06 ± 0.043,1.01 ± 0.059,1.01 ± 0.074,1.05 ± 0.12
A0A0A0MR85|Q03013 (UniProt Q03013),0.998 ± 0.013,0.984 ± 0.01,0.948 ± 0.046,0.951 ± 0.04,0.934 ± 0.033,0.928 ± 0.056
A0A087X0N3|Q96MY1 (UniProt Q96MY1),0.9635 ± 0.0067,0.986 ± 0.0099,0.954 ± 0.021,0.959 ± 0.0097,0.9487 ± 0.0075,0.928 ± 0.02
A0A0D9SFR6|Q86XP1 and related entries (UniProt Q86XP1),1.03 ± 0.03,1.01 ± 0.054,1.03 ± 0.054,0.984 ± 0.032,0.965 ± 0.03,0.969 ± 0.033
A0A0G2JIW2|A2AE48 and related entries (UniProt Q12899),1.033 ± 0.0052,0.98 ± 0.01,1.01 ± 0.02,1.02 ± 0.039,1.04 ± 0.027,1.02 ± 0.011
A0A0A0MRE6|O94967 and related entries (UniProt O94967),1.01 ± 0.025,1.02 ± 0.039,1.023 ± 0.0068,0.999 ± 0.039,0.984 ± 0.026,0.985 ± 0.031
A0A0A0MSE9|B7WPA5 and related entries (UniProt Q96CS7),0.9883 ± 0.0098,1.01 ± 0.018,0.991 ± 0.026,0.9909 ± 0.0033,1.01 ± 0.015,0.974 ± 0.013
A0A0D9SEJ5|F5GY05 and related entries (UniProt Q96EK7),0.974 ± 0.021,0.99 ± 0.046,0.993 ± 0.039,0.972 ± 0.052,0.953 ± 0.022,0.957 ± 0.037
A0A0C4DGZ0 (UniProt P24928),0.995 ± 0.05,0.946 ± 0.091,0.99 ± 0.059,0.961 ± 0.077,0.961 ± 0.08,0.944 ± 0.11
A0A0A0MQU0|Q9BV38 and related entries (UniProt Q9BV38),0.986 ± 0.037,0.996 ± 0.1,0.958 ± 0.047,0.972 ± 0.071,0.972 ± 0.054,0.957 ± 0.071
A0A087WXP7|Q9H2P9 and related entries (UniProt Q9H2P9),0.95 ± 0.027,0.982 ± 0.034,0.969 ± 0.022,0.936 ± 0.021,0.947 ± 0.017,0.961 ± 0.048

# For convenience, part of the list above.
Target,NP40-soluble protein abundance (concentration: 1mM),NP40-soluble protein abundance (concentration: 2mM),NP40-soluble protein abundance (concentration: 4mM),NP40-soluble protein abundance (concentration: 6mM),NP40-soluble protein abundance (concentration: 8mM),NP40-soluble protein abundance (concentration: 10mM)
A0A0A0MSE9|B7WPA5 and related entries (UniProt Q96CS7),0.9883 ± 0.0098,1.01 ± 0.018,0.991 ± 0.026,0.9909 ± 0.0033,1.01 ± 0.015,0.974 ± 0.013
A0A0D9SEJ5|F5GY05 and related entries (UniProt Q96EK7),0.974 ± 0.021,0.99 ± 0.046,0.993 ± 0.039,0.972 ± 0.052,0.953 ± 0.022,0.957 ± 0.037

# Next results.

Target,NP40-soluble protein abundance (concentration: 1mM),NP40-soluble protein abundance (concentration: 2mM),NP40-soluble protein abundance (concentration: 4mM),NP40-soluble protein abundance (concentration: 6mM),NP40-soluble protein abundance (concentration: 8mM),NP40-soluble protein abundance (concentration: 10mM)
A0A0A0MTJ9|A0A0R4J2G3|Q6PIU2 and related entries (UniProt Q6PIU2),1 ± 0.028,1.02 ± 0.032,0.999 ± 0.018,0.987 ± 0.013,0.979 ± 0.022,1.01 ± 0.019
A0A0D9SEU5|Q6VN20 and related entries (UniProt Q6VN20),0.981 ± 0.077,1.013 ± 0.01,0.999 ± 0.064,0.956 ± 0.099,0.918 ± 0.075,0.937 ± 0.089
A0A0A0MRS4|Q9NVV0 (UniProt Q9NVV0),1.06 ± 0.031,1.08 ± 0.056,1.07 ± 0.05,1.05 ± 0.025,1.046 ± 0.0015,1.08 ± 0.061
A0A0A0MSJ9|Q15283 and related entries (UniProt Q15283),1.02 ± 0.043,0.947 ± 0.1,0.984 ± 0.062,0.962 ± 0.0078,0.962 ± 0.034,0.951 ± 0.041
A0A087X2G6|A0A0C4DGU5|D6RIC3 and related entries (UniProt Q9Y3C1),1.02 ± 0.071,1.01 ± 0.049,1 ± 0.053,0.993 ± 0.023,1.01 ± 0.039,1.01 ± 0.058
A0A087WY85|P61077 and related entries (UniProt P61077),0.921 ± 0.043,0.875 ± 0.084,0.932 ± 0.029,0.996 ± 0.041,1 ± 0.044,0.965 ± 0.036
A0A0B4J2C3|P13693 and related entries (UniProt P13693),0.964 ± 0.026,1 ± 0.016,0.956 ± 0.029,0.9833 ± 0.0083,0.958 ± 0.027,0.962 ± 0.035
A0A0A0MRU8|Q9Y4X4 (UniProt Q9Y4X4),1 ± 0.023,1.07 ± 0.027,1 ± 0.047,1.01 ± 0.014,1.02 ± 0.011,0.995 ± 0.017
A0A0D9SF53|A0A0D9SFB3|A0A0D9SG12|O00571 (UniProt O00571),1.04 ± 0.023,1.02 ± 0.039,1.04 ± 0.04,1.04 ± 0.07,1.1 ± 0.075,1.09 ± 0.092
A0A087WYU2|Q96S19 (UniProt Q96S19),1.04 ± 0.022,1.01 ± 0.015,1.01 ± 0.012,0.989 ± 0.013,0.988 ± 0.022,0.978 ± 0.026
A0A0C4DGG9|F5GWX5 and related entries (UniProt Q14839),0.999 ± 0.037,1.03 ± 0.021,1.01 ± 0.047,1.04 ± 0.046,1.04 ± 0.04,1.07 ± 0.063
A0A0J9YXJ0|E9PC62 and related entries (UniProt O95319),0.995 ± 0.02,0.986 ± 0.015,0.997 ± 0.024,0.985 ± 0.029,0.962 ± 0.017,0.974 ± 0.053
A2A2V1 and related entries (UniProt P04156+A2A2V1),1.01 ± 0.029,1.08 ± 0.066,1.02 ± 0.02,1.044 ± 0.01,1.03 ± 0.018,1.01 ± 0.016
A0A0A0MTB8|Q8NI36 (UniProt Q8NI36),1.1 ± 0.06,1.15 ± 0.11,1.37 ± 0.12,1.55 ± 0.11,1.73 ± 0.16,1.78 ± 0.086
A0A0J9YXM6|E9PDG3 and related entries (UniProt Q562E7),0.98 ± 0.021,0.955 ± 0.027,0.996 ± 0.027,0.9874 ± 0.0086,0.996 ± 0.04,0.998 ± 0.022
A0A087WYS9|Q15526 and related entries (UniProt Q15526),1.03 ± 0.051,0.995 ± 0.092,1.03 ± 0.072,1.01 ± 0.032,1.01 ± 0.029,0.991 ± 0.041
A0A0C4DG17|C9J9K3 and related entries (UniProt P08865),1.03 ± 0.05,0.968 ± 0.042,0.975 ± 0.039,0.947 ± 0.04,0.941 ± 0.05,0.952 ± 0.057
A0A0G2JNU3|A6H8Y1 and related entries (UniProt A6H8Y1),1.05 ± 0.041,1.087 ± 0.0063,1.12 ± 0.056,1.17 ± 0.067,1.12 ± 0.07,1.22 ± 0.046
A0A096LPC5|A0A0A0MR88|Q9Y4E1 and related entries (UniProt Q9Y4E1),1.01 ± 0.015,1.07 ± 0.069,1.03 ± 0.059,1.027 ± 0.01,0.998 ± 0.026,0.991 ± 0.044
A0A087WZE9 (UniProt Q15651),1.03 ± 0.0075,1.08 ± 0.022,1.09 ± 0.043,1.144 ± 0.01,1.12 ± 0.04,1.23 ± 0.026
A0A0A6YYG7|Q6IBW4 and related entries (UniProt Q6IBW4),0.987 ± 0.047,1.03 ± 0.011,0.994 ± 0.038,1.01 ± 0.042,0.988 ± 0.029,1.02 ± 0.073
A0A087X1A8|F5H211 and related entries (UniProt P54252),1 ± 0.035,1.03 ± 0.083,0.966 ± 0.054,0.949 ± 0.038,0.918 ± 0.053,0.937 ± 0.074
A0A0C4DFM2|Q6ZN55 and related entries (UniProt Q6ZN55),1 ± 0.031,1.001 ± 0.0041,0.972 ± 0.045,0.978 ± 0.01,0.976 ± 0.026,0.938 ± 0.025
A0A0C4DH44|P62888 (UniProt P62888),1.01 ± 0.1,0.984 ± 0.069,0.953 ± 0.12,0.931 ± 0.087,0.94 ± 0.1,0.951 ± 0.11
A0A087WXV6|Q96G74 and related entries (UniProt Q96G74),1.05 ± 0.037,1.06 ± 0.039,1.06 ± 0.034,1.02 ± 0.037,1.01 ± 0.047,1.04 ± 0.068
